{
  "source": "patent US7829578B1",
  "about": "“Aromatic ketones and uses thereof” (Oregon Health & Science University, priority 2005, dated 2010)",
  "origin": "cited, not measured here",
  "test_system": "Plasmodium parasitized red blood cells",
  "settings": "known property; cited from earlier work",
  "note": "At least one compound was matched to its structure with a doubt left.",
  "data": [
    {"compound": "O=C1C(O)=C([C@H]2CC[C@H](c3ccc(Cl)cc3)CC2)C(=O)c2ccccc21", "note": "[atovaquone]", "values": [
      {"measurement": "block of oxygen consumption by parasites", "value": "known to block oxygen consumption by parasites"}
    ]}
  ]
}
